± gives the standard deviation of the averaged measurements. Only a part is listed here, and it is no random draw. Most values lie at the level of the controls, where differences are scatter.
Compound: Nc1ncnc2c1ncn2[C@@H]1O[C@H](COP(=O)(O)OP(=O)(O)OP(=O)(O)O)[C@@H](O)[C@H]1O [adenosine triphosphate]
Experiment: NP40-soluble protein abundance relative to vehicle (solubility fold change) (ratio); higher = more soluble protein in presence of ATP
Procedure, shortened: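 Jurkat crude lysate prepared with a Dounce homogeniser was treated at eight concentrations spanning 0.1 to 10 mM, 10 min at room temperature then 3 min at 37 °C. Solubilisation with 0.8% NP40 and benzonase and ultracentrifugation preceded TMT labelling of the supernatant for LC-MS/MS. Fold change against the detergent-processed vehicle was determined per replicate from vsn-normalised intensities, across three independent experiments.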

By UniProt entry, the sequences of proteins in these tests, tags left out. Where a name states a change or a piece, a line headed by the entry shows the natural chain unless it says otherwise.
UniProt Q6ZNB6: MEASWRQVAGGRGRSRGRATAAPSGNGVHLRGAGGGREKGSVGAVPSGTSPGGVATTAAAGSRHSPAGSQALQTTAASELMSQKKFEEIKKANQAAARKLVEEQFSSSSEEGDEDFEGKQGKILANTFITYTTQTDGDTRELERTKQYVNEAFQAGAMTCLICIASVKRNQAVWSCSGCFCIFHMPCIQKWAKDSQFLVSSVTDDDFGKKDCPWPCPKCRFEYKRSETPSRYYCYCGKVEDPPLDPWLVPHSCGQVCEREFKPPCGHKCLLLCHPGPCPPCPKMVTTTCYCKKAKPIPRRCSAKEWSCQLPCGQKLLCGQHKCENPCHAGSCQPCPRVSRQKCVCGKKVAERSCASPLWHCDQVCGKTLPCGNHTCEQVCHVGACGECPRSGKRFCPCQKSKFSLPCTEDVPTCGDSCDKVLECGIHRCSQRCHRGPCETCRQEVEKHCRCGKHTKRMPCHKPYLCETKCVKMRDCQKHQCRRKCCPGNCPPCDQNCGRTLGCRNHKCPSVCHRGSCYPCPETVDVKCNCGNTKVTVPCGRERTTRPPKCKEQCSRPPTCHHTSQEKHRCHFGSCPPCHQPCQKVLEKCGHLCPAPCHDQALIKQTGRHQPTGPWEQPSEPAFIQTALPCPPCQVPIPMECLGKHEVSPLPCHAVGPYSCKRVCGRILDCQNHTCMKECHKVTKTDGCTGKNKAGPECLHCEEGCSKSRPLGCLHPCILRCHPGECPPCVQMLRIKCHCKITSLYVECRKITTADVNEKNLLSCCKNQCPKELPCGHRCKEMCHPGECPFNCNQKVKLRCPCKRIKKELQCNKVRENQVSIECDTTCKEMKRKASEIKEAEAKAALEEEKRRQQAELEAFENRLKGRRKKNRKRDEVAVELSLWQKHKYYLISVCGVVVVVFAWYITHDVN
UniProt Q86W56: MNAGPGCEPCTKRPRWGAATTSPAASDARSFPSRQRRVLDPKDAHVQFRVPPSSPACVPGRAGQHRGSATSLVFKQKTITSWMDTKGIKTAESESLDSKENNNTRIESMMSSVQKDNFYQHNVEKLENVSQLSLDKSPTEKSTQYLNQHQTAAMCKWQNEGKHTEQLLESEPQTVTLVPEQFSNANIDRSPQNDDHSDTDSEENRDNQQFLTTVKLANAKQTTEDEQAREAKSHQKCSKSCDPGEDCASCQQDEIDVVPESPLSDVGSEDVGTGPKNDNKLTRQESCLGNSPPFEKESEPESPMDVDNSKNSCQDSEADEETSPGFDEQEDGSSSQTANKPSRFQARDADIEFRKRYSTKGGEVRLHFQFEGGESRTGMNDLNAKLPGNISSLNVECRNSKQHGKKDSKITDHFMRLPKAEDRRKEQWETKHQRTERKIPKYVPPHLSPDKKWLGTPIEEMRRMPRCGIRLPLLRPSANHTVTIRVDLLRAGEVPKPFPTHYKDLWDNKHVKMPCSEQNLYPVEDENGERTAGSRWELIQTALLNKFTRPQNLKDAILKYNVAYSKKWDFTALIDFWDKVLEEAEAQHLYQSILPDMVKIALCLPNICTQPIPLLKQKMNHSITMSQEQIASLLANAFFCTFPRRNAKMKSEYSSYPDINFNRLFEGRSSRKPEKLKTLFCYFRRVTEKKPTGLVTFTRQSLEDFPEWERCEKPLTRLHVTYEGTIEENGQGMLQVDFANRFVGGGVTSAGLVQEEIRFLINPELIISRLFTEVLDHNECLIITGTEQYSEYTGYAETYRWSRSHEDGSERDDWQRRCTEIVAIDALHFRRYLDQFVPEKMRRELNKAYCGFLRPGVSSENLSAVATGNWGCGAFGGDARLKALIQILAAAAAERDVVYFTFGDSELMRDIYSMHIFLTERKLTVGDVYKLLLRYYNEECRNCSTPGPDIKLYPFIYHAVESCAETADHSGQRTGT
UniProt Q6PGP7, whole entry: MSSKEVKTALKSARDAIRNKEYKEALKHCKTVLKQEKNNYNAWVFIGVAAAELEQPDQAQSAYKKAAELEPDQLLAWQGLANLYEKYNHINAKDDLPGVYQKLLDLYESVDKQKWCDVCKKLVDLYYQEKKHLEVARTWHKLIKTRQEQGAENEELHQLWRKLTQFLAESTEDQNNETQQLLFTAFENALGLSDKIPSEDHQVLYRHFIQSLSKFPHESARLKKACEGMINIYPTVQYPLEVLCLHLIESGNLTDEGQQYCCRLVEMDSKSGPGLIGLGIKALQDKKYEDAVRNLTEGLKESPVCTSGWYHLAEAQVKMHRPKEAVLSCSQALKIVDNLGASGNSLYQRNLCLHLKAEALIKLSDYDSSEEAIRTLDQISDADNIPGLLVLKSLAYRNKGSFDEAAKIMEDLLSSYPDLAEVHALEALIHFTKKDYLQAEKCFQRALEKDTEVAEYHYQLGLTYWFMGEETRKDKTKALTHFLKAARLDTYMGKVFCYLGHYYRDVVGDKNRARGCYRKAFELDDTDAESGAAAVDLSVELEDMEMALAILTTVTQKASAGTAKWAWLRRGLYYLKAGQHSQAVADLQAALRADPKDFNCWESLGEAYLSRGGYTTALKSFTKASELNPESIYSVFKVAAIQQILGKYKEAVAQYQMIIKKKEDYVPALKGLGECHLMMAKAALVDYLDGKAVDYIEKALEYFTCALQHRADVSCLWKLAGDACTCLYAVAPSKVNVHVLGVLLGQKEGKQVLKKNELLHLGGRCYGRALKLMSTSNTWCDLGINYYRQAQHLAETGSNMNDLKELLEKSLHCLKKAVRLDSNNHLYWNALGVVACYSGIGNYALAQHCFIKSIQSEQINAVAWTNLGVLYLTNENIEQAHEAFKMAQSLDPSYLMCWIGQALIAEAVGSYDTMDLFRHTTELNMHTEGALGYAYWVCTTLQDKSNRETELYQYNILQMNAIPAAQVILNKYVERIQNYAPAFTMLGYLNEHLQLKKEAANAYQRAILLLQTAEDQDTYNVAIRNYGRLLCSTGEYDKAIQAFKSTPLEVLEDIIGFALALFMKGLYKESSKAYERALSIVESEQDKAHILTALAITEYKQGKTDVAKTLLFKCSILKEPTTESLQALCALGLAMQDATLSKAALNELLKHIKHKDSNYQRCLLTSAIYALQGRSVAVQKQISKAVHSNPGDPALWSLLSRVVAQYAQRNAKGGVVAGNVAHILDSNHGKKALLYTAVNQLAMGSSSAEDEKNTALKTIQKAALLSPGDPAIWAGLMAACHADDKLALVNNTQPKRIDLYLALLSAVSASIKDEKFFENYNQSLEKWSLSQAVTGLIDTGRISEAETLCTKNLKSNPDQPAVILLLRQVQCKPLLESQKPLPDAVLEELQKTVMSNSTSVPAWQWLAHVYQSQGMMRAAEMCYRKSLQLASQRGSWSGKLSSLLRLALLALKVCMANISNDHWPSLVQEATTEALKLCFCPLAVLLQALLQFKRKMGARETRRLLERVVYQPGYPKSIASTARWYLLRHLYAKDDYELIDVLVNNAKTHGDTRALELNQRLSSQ
UniProt Q86WV6: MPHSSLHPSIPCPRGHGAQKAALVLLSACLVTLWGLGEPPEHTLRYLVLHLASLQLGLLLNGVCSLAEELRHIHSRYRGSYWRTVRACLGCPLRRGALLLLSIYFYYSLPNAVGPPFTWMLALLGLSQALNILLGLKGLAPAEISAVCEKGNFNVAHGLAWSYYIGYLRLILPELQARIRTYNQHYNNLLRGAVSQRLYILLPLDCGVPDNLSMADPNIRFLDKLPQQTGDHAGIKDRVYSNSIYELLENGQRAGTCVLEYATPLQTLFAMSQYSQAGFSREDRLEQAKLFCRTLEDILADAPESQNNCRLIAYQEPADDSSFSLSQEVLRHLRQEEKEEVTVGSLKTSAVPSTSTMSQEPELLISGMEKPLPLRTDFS
UniProt Q86YS7: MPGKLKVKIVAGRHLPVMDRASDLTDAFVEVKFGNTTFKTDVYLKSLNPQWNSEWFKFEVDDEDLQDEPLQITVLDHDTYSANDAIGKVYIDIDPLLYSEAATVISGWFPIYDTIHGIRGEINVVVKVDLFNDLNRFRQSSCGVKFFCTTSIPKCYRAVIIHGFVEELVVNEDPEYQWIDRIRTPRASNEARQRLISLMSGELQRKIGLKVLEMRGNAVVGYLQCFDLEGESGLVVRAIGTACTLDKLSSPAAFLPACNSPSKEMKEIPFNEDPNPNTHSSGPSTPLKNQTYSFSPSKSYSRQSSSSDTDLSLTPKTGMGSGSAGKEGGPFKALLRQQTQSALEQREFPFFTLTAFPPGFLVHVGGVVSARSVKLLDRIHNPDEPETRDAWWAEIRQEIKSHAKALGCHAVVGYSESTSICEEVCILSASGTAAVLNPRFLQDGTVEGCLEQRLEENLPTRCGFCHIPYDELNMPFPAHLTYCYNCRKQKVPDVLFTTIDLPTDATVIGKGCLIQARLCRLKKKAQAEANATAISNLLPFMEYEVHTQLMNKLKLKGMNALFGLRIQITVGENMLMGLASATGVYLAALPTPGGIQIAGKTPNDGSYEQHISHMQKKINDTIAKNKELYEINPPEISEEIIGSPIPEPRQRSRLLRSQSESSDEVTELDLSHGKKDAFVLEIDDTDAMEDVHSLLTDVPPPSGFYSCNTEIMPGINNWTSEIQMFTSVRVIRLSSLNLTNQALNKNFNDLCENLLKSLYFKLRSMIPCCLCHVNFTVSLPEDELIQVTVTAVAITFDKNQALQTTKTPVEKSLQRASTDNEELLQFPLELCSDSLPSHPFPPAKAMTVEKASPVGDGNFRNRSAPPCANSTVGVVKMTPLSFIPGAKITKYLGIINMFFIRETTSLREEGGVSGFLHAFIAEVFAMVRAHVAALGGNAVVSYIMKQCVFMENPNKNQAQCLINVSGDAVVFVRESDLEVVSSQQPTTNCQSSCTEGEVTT
UniProt Q712K3: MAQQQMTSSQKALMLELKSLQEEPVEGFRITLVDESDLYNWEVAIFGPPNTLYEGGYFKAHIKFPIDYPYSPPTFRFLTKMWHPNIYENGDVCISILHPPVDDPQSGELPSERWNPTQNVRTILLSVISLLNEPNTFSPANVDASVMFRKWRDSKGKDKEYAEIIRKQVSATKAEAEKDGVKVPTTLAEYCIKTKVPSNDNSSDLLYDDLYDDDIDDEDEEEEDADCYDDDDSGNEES
UniProt Q6QNY1: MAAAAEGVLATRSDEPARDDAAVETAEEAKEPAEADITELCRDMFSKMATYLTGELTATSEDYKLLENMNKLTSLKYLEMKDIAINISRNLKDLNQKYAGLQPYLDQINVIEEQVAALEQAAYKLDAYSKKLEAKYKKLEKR
UniProt Q7Z5L9: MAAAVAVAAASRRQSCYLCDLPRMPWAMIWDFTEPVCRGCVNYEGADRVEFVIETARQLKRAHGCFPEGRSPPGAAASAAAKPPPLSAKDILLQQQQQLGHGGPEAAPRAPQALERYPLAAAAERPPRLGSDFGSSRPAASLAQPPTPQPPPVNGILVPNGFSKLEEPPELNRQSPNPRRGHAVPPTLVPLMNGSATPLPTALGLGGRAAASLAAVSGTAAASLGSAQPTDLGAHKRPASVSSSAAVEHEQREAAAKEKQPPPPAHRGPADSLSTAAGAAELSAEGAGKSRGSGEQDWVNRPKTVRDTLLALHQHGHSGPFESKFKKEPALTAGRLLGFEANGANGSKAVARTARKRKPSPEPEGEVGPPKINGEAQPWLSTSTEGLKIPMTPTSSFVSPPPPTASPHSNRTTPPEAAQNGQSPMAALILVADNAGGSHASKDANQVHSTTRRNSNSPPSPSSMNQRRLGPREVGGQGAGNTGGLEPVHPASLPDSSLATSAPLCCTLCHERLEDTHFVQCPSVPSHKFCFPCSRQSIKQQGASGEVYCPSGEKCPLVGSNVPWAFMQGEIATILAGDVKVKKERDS
UniProt Q86UX7, whole entry: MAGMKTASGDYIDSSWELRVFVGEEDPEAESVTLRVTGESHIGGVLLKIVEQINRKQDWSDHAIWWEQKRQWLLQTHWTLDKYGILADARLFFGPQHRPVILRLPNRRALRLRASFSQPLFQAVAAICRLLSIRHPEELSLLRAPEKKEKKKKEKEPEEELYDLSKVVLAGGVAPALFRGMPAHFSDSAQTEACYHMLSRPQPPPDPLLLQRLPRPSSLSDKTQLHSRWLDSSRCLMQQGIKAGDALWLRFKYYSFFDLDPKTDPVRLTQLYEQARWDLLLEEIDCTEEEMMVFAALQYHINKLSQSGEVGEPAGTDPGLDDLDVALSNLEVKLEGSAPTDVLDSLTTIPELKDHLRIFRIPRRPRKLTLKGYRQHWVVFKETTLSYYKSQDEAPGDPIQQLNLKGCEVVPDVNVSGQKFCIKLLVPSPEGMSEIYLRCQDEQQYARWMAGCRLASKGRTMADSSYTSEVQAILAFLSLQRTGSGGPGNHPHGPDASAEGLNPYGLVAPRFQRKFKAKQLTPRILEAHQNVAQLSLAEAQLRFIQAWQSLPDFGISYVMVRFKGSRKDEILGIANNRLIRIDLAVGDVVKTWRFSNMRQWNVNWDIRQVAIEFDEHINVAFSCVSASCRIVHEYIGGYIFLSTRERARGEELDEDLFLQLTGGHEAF

Target	NP40-soluble protein abundance (concentration: 0.1mM)	NP40-soluble protein abundance (concentration: 0.5mM)
UniProt Q8IUF8	1.13 ± 0.086	1.15 ± 0.052
UniProt Q86X55 and related entries	1.06 ± 0.098	1.02 ± 0.054
HSDL2 (UniProt Q6YN16)	0.9716 ± 0.0037	0.982 ± 0.022
TRAPPC6B (UniProt Q86SZ2)	0.963 ± 0.036	0.925 ± 0.11
UniProt Q7L592	1.05 ± 0.042	1.02 ± 0.067
GPAT4 (UniProt Q86UL3)	1.01 ± 0.075	0.994 ± 0.049
NFXL1 (UniProt Q6ZNB6)	1.04 ± 0.043	1 ± 0.061
PARG (UniProt Q86W56)	1.02 ± 0.049	1.02 ± 0.048
DCP2 (UniProt Q8IU60)	1.06 ± 0.019	1.07 ± 0.026
UniProt Q86SX3 and related entries	0.992 ± 0.17	1 ± 0.19
UniProt Q7KZ85 and related entries	1.04 ± 0.038	1.05 ± 0.047
HS2ST1 (UniProt Q7LGA3)	1.02 ± 0.061	1.12 ± 0.022
TTC37 (UniProt Q6PGP7)	0.96 ± 0.064	0.967 ± 0.05
HOMER1 (UniProt Q86YM7)	0.951 ± 0.048	0.9359 ± 0.0062
TMEM173 (UniProt Q86WV6)	1.03 ± 0.028	1.03 ± 0.05
UniProt Q86YS7 and related entries	1 ± 0.03	1.049 ± 0.0063

Target	NP40-soluble protein abundance (concentration: 0.1mM)	NP40-soluble protein abundance (concentration: 0.5mM)
UniProt Q6V1X1 and related entries	1.06 ± 0.082	1.02 ± 0.072
FASTKD5 (UniProt Q7L8L6)	0.972 ± 0.098	0.961 ± 0.025
UniProt Q712K3	0.952 ± 0.03	0.941 ± 0.045
BLOC1S2 (UniProt Q6QNY1)	0.888 ± 0.14	0.9544 ± 0.0033
UniProt Q6PII5-2|B4DED4	1.12 ± 0.1	0.958 ± 0.062
RAB43 (UniProt Q86YS6)	1.03 ± 0.086	1.05 ± 0.059
UniProt Q6UX04	1.03 ± 0.03	1.08 ± 0.055
UniProt Q7Z5L9 and related entries	0.976 ± 0.03	0.9497 ± 0.0036
TSEN54 (UniProt Q7Z6J9)	1.03 ± 0.044	1.02 ± 0.049
UniProt Q86W34 and related entries	0.998 ± 0.034	1.02 ± 0.049
UniProt Q6ULP2 and related entries	0.997 ± 0.035	0.991 ± 0.023
UniProt Q7Z5J4 and related entries	1.01 ± 0.016	1.04 ± 0.0093
UniProt Q86UX7 and related entries	1.05 ± 0.12	1.02 ± 0.041
UniProt Q86W50	1.02 ± 0.025	0.991 ± 0.03
SASS6 (UniProt Q6UVJ0)	0.972 ± 0.076	0.962 ± 0.022

2 entries picked at random from the list so far, as already listed:
Target	NP40-soluble protein abundance (concentration: 0.1mM)	NP40-soluble protein abundance (concentration: 0.5mM)
UniProt Q6UX04	1.03 ± 0.03	1.08 ± 0.055
TSEN54 (UniProt Q7Z6J9)	1.03 ± 0.044	1.02 ± 0.049
